Data as given in PubChem BioAssay AID1671195 (Yale University, 2021)
Purpose: 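Knockdowns that increase or decrease uptake of fluorescent LDL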 (primary screen). System: human Huh7 hepatoma cells. Reagents: siRNA pool against human genes, 18 nM. Duration: about 2 to 2.5 days of knockdown, then 8 h LDL uptake. Conditions: DiI-labelled LDL at 30 µg/ml for 8 h, in lipoprotein-deficient serum medium. Read-out: 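Per-cell DiI-LDL intensity by automated imaging; well means scaled to the plate median and given as a robust z-score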. Scale: robust z-score: higher = more LDL uptake after knockdown. Hit rule: 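a gene counts as active if at least two replicate z-scores exceed ±2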.
The deposit covers about 22,000 reagents; shown is an unselected part. About 1,510 of all reagents (6.9%) count as active. 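Active includes knockdowns raising or lowering LDL uptake; positive z-scores mean more uptake, negative mean less.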

LOC440857 (retired record) | robust z-score, replicate 1: -0.946; robust z-score, replicate 2: -1.04; robust z-score, replicate 3: -0.687; Call: inactive
B4GALT7 | robust z-score, replicate 1: -2.03; robust z-score, replicate 2: 0.00339; robust z-score, replicate 3: -1.81; Call: inactive
ZNF700 | robust z-score, replicate 1: 2.98; robust z-score, replicate 2: 2.79; robust z-score, replicate 3: 2; Call: active
HMG20A | robust z-score, replicate 1: -0.457; robust z-score, replicate 2: 0.114; robust z-score, replicate 3: -1.29; Call: inactive
CDH15 | robust z-score, replicate 1: 1.84; robust z-score, replicate 2: 0.715; robust z-score, replicate 3: 0.57; Call: inactive
ANKRD46 | robust z-score, replicate 1: 0.36; robust z-score, replicate 2: 0.174; robust z-score, replicate 3: 0.105; Call: inactive
DCAF13 | robust z-score, replicate 1: 0.379; robust z-score, replicate 2: -0.324; robust z-score, replicate 3: 0.214; Call: inactive
STK4 | robust z-score, replicate 1: -0.324; robust z-score, replicate 2: -0.163; robust z-score, replicate 3: 0.325; Call: inactive
LOC389394 (retired record) | robust z-score, replicate 1: 1.16; robust z-score, replicate 2: 1.01; robust z-score, replicate 3: 1.46; Call: inactive
GPLD1 | robust z-score, replicate 1: -0.00891; robust z-score, replicate 2: 0.666; robust z-score, replicate 3: 0.358; Call: inactive
OTOGL | robust z-score, replicate 1: -1.28; robust z-score, replicate 2: -0.972; robust z-score, replicate 3: -0.829; Call: inactive
PRSS22 | robust z-score, replicate 1: -1.16; robust z-score, replicate 2: -1.28; robust z-score, replicate 3: -0.206; Call: inactive

Reagents listed above marked active (1):
ZNF700 | robust z-score, replicate 1: 2.98; robust z-score, replicate 2: 2.79; robust z-score, replicate 3: 2; Call: active
